PubChem BioAssay AID1259254 | NCATS, 2017

Purpose: 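Finding genes that stop cells copying their DNA twice in one cycle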 (primary screen)
Cell system: human HCT116 colorectal cancer cells
Reagent: single siRNA against human genes
Time to read-out: 3 days
Measured: 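Nuclei stained with Hoechst and imaged; cell-cycle phase assigned by DNA content; G2 share scaled per plate, non-targeting siRNA 0%, GMNN siRNA 100%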
Scale: G2 robust z-score and G2 cells, % of GMNN control: higher = more G2 cells, more excess DNA replication; raw share of cells in G2: higher = larger share of cells with G2 DNA content
Hit rule: 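An siRNA counts as active if its G2 robust z-score lies at least 5 MADs above the screen median; here such calls match roughly 38% of GMNN control or more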
Here is one part, drawn at random, of about 59,000 reagents tested. About 1,550 of them (2.6%) were called active. 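G2 share is only a proxy for re-replication; each gene was hit by three separate siRNAs, and active genes were retested.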 Raw values are not corrected between plates. The numbers tell different reagents against one gene apart. Not given: the amount of reagent.

gene symbol | reagent | G2 robust z-score | G2 cells, % of GMNN control | raw share of cells in G2 (%) | Outcome
TAF3 (TATA-box binding protein associated factor 3) | 1 | 4.16 | 32.3 | 14.8 | inactive
TAF3 (TATA-box binding protein associated factor 3) | 2 | -0.468 | -0.328 | 3.36 | inactive
TAF3 (TATA-box binding protein associated factor 3) | 3 | 0.543 | 6.79 | 4.46 | inactive
MIGA1 (mitoguardin 1) | 1 | 5.39 | 40.9 | 18 | active
MIGA1 (mitoguardin 1) | 2 | 0.163 | 4.11 | 5.06 | inactive
MIGA1 (mitoguardin 1) | 3 | 2.5 | 20.5 | 12.5 | inactive
CELA1 (chymotrypsin like elastase 1) | 1 | 8.26 | 61.1 | 26.9 | active
CELA1 (chymotrypsin like elastase 1) | 2 | 0.439 | 6.05 | 7.05 | inactive
CELA1 (chymotrypsin like elastase 1) | 3 | -0.457 | -0.251 | 3.82 | inactive
PDK3 (pyruvate dehydrogenase kinase 3) | 1 | 1.02 | 10.1 | 8.96 | inactive
PDK3 (pyruvate dehydrogenase kinase 3) | 2 | -1.04 | -4.36 | 3.94 | inactive
PDK3 (pyruvate dehydrogenase kinase 3) | 3 | -0.883 | -3.24 | 2.88 | inactive
CDH2 (cadherin 2) | 1 | 2.2 | 18.4 | 10.5 | inactive
CDH2 (cadherin 2) | 2 | 1.95 | 16.7 | 10.9 | inactive
CDH2 (cadherin 2) | 3 | 0.495 | 6.45 | 7.35 | inactive
PCDH19 (protocadherin 19) | 1 | -0.805 | -2.7 | 4.53 | inactive
PCDH19 (protocadherin 19) | 2 | 2.43 | 20.1 | 11.5 | inactive
PCDH19 (protocadherin 19) | 3 | 0.814 | 8.69 | 7.38 | inactive
TNFAIP6 (TNF alpha induced protein 6) | 1 | 0.415 | 5.89 | 6.67 | inactive
TNFAIP6 (TNF alpha induced protein 6) | 2 | -0.672 | -1.76 | 4.65 | inactive
TNFAIP6 (TNF alpha induced protein 6) | 3 | 2.12 | 17.9 | 10.8 | inactive
GSR (glutathione-disulfide reductase) | 1 | -0.177 | 1.72 | 5.86 | inactive
GSR (glutathione-disulfide reductase) | 2 | 0.57 | 6.98 | 7.92 | inactive
GSR (glutathione-disulfide reductase) | 3 | 0.336 | 5.33 | 5.56 | inactive
ZDHHC14 (zDHHC palmitoyltransferase 14) | 1 | -0.828 | -2.86 | 3.73 | inactive
ZDHHC14 (zDHHC palmitoyltransferase 14) | 2 | -0.947 | -3.7 | 2.86 | inactive
ZDHHC14 (zDHHC palmitoyltransferase 14) | 3 | 2.69 | 21.9 | 14.6 | inactive
CGRRF1 (cell growth regulator with ring finger domain 1) | 1 | -0.996 | -4.04 | 3.4 | inactive
CGRRF1 (cell growth regulator with ring finger domain 1) | 2 | -0.417 | 0.0338 | 4.15 | inactive
CGRRF1 (cell growth regulator with ring finger domain 1) | 3 | -0.5 | -0.552 | 2.97 | inactive
SCGB3A1 (secretoglobin family 3A member 1) | 1 | 0.758 | 8.3 | 7.61 | inactive
SCGB3A1 (secretoglobin family 3A member 1) | 2 | 1.66 | 14.7 | 7.6 | inactive
SCGB3A1 (secretoglobin family 3A member 1) | 3 | 0.469 | 6.27 | 4.91 | inactive
E2F4 (E2F transcription factor 4) | 1 | -0.83 | -2.87 | 4.19 | inactive
E2F4 (E2F transcription factor 4) | 2 | 0.548 | 6.82 | 6.09 | inactive
E2F4 (E2F transcription factor 4) | 3 | -0.588 | -1.17 | 4.82 | inactive
EDAR (ectodysplasin A receptor) | 1 | 0.112 | 3.76 | 7.33 | inactive
EDAR (ectodysplasin A receptor) | 2 | 1.14 | 11 | 7.4 | inactive
EDAR (ectodysplasin A receptor) | 3 | -0.435 | -0.0934 | 6.44 | inactive
TBC1D10C (TBC1 domain family member 10C) | 1 | -0.0648 | 2.51 | 4.85 | inactive
TBC1D10C (TBC1 domain family member 10C) | 2 | 0.236 | 4.63 | 5.28 | inactive
TBC1D10C (TBC1 domain family member 10C) | 3 | 1.79 | 15.6 | 10.5 | inactive
UBE2D4 (ubiquitin conjugating enzyme E2 D4) | 1 | 0.586 | 7.09 | 6.52 | inactive
UBE2D4 (ubiquitin conjugating enzyme E2 D4) | 2 | -0.542 | -0.843 | 3.93 | inactive
UBE2D4 (ubiquitin conjugating enzyme E2 D4) | 3 | -0.71 | -2.03 | 5.03 | inactive
TTC27 (tetratricopeptide repeat domain 27) | 1 | 0.652 | 7.55 | 7.43 | inactive
TTC27 (tetratricopeptide repeat domain 27) | 2 | -0.0906 | 2.33 | 5.1 | inactive
TTC27 (tetratricopeptide repeat domain 27) | 3 | 0.536 | 6.74 | 5.29 | inactive
APOOL (apolipoprotein O like) | 1 | 0.429 | 5.99 | 4.75 | inactive
APOOL (apolipoprotein O like) | 2 | 0.362 | 5.51 | 6.25 | inactive
APOOL (apolipoprotein O like) | 3 | 0.901 | 9.3 | 6.05 | inactive
PRR18 (proline rich 18) | 1 | -0.58 | -1.11 | 3.24 | inactive
PRR18 (proline rich 18) | 2 | 0.169 | 4.16 | 4.65 | inactive
PRR18 (proline rich 18) | 3 | -0.377 | 0.314 | 3.36 | inactive
NUP210 (nucleoporin 210) | 1 | 0.578 | 7.04 | 5.87 | inactive
NUP210 (nucleoporin 210) | 2 | -0.633 | -1.49 | 5.33 | inactive
NUP210 (nucleoporin 210) | 3 | -0.156 | 1.87 | 4.12 | inactive
RGS5 (regulator of G protein signaling 5) | 1 | -1.03 | -4.26 | 3.18 | inactive
RGS5 (regulator of G protein signaling 5) | 2 | 2.52 | 20.7 | 12.5 | inactive
RGS5 (regulator of G protein signaling 5) | 3 | 0.57 | 6.98 | 7.71 | inactive
KYAT3 (kynurenine aminotransferase 3) | 1 | -0.0339 | 2.73 | 7.63 | inactive
KYAT3 (kynurenine aminotransferase 3) | 2 | -0.16 | 1.84 | 5.1 | inactive
KYAT3 (kynurenine aminotransferase 3) | 3 | -1.18 | -5.32 | 2.12 | inactive
NDRG3 (NDRG family member 3) | 1 | 1.56 | 13.9 | 9.84 | inactive
NDRG3 (NDRG family member 3) | 2 | -0.121 | 2.11 | 5.47 | inactive
NDRG3 (NDRG family member 3) | 3 | 1.42 | 12.9 | 7.12 | inactive
SEMA3D (semaphorin 3D) | 1 | -0.883 | -3.25 | 4.41 | inactive
SEMA3D (semaphorin 3D) | 2 | -0.247 | 1.23 | 5.15 | inactive
SEMA3D (semaphorin 3D) | 3 | -0.512 | -0.638 | 4.43 | inactive

Copied from the listing for reference:
gene symbol | reagent | G2 robust z-score | G2 cells, % of GMNN control | raw share of cells in G2 (%) | Outcome
PDK3 (pyruvate dehydrogenase kinase 3) | 1 | 1.02 | 10.1 | 8.96 | inactive
PDK3 (pyruvate dehydrogenase kinase 3) | 2 | -1.04 | -4.36 | 3.94 | inactive
PDK3 (pyruvate dehydrogenase kinase 3) | 3 | -0.883 | -3.24 | 2.88 | inactive
CDH2 (cadherin 2) | 1 | 2.2 | 18.4 | 10.5 | inactive
